Measurements reported in the supplement of paper PMC12823440, “Inhibitors supercharge kinase turnover through native proteolytic circuits” (Nature, 2025).
This is one part of the list. Hit calls seldom repeat between salt and free forms of one compound.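 Kinases, fused to nanoluciferase, were expressed in K562 cells; luminescence was measured every 4 h from 2 to 18 h as percent of control (DMSO = 100%, positive control = 0%). A time point is decreased if signal falls significantly (2 sigma). Hits were called by the authors by a rule that is not shown; the count of time points alone does not decide it.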

Amino acid sequences for entries named in this document (tags omitted). A change or cut given only in a name is not applied to a line headed by its entry.
UniProt O75460: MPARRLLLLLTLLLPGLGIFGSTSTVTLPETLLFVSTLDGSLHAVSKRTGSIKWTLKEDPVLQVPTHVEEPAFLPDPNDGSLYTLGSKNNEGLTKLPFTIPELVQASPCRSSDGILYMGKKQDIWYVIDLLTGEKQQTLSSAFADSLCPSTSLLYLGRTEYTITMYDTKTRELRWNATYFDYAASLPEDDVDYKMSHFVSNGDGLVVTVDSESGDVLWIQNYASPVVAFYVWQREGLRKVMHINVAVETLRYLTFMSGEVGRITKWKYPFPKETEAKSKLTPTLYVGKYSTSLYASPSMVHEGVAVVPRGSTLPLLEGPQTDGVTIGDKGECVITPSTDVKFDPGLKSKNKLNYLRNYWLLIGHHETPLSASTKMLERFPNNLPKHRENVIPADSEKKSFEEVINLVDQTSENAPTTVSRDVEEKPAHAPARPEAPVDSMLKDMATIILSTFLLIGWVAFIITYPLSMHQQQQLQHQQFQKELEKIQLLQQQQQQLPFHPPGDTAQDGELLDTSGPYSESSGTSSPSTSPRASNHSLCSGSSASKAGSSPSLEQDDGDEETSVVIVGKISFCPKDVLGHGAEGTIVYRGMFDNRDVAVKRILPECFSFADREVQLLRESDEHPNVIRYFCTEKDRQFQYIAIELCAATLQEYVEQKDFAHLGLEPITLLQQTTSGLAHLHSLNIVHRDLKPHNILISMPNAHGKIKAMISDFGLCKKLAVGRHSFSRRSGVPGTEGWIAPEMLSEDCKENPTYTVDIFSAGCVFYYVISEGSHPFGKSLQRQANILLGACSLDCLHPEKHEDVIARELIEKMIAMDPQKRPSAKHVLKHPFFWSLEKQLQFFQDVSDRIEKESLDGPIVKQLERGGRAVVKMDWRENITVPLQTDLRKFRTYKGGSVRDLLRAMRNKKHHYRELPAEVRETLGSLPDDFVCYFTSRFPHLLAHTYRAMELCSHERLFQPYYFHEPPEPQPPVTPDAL
UniProt P11362, whole entry, looked up: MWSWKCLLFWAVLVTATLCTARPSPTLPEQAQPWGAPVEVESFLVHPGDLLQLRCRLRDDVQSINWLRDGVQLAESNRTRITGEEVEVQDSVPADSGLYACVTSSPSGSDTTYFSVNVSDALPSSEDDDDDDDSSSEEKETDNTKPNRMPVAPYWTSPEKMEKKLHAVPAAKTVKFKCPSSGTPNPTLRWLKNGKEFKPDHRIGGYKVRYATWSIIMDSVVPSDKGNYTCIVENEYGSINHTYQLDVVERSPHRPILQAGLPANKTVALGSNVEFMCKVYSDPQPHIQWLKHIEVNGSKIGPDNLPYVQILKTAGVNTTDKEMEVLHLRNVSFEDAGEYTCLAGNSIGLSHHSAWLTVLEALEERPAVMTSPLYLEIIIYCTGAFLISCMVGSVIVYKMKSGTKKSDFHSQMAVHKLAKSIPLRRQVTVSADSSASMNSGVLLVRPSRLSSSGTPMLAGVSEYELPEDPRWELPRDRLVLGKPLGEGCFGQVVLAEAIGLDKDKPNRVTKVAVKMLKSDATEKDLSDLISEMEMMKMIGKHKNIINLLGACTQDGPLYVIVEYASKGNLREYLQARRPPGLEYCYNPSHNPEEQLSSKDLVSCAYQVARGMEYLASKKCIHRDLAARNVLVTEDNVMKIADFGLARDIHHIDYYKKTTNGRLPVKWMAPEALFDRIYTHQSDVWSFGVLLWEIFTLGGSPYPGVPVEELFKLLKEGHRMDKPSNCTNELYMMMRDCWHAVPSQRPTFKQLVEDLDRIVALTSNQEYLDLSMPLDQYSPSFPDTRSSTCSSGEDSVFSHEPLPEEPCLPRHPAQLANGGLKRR
UniProt P21802, whole entry, looked up: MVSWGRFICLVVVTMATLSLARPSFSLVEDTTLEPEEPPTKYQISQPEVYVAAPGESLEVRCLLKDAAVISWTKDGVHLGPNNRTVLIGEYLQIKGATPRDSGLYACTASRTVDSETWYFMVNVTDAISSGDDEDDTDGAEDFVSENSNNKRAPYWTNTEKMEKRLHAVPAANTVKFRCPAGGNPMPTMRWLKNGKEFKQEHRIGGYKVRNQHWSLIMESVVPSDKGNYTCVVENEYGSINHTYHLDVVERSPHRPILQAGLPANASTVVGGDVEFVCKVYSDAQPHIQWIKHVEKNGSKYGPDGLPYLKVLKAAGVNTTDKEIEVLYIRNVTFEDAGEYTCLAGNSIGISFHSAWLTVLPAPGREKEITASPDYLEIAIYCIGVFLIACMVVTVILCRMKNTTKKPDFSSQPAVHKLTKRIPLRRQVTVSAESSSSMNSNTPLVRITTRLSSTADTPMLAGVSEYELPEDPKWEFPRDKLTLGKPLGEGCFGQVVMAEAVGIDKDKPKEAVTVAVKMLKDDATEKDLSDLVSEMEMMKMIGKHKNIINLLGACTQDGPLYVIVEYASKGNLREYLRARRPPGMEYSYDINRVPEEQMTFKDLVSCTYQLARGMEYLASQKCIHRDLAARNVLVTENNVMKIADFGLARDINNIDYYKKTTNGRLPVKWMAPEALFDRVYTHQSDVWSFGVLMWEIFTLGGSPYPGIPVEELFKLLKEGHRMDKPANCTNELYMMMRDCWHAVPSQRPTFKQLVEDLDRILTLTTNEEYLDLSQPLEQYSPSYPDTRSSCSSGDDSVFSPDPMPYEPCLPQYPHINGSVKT
UniProt P22607, whole entry, looked up: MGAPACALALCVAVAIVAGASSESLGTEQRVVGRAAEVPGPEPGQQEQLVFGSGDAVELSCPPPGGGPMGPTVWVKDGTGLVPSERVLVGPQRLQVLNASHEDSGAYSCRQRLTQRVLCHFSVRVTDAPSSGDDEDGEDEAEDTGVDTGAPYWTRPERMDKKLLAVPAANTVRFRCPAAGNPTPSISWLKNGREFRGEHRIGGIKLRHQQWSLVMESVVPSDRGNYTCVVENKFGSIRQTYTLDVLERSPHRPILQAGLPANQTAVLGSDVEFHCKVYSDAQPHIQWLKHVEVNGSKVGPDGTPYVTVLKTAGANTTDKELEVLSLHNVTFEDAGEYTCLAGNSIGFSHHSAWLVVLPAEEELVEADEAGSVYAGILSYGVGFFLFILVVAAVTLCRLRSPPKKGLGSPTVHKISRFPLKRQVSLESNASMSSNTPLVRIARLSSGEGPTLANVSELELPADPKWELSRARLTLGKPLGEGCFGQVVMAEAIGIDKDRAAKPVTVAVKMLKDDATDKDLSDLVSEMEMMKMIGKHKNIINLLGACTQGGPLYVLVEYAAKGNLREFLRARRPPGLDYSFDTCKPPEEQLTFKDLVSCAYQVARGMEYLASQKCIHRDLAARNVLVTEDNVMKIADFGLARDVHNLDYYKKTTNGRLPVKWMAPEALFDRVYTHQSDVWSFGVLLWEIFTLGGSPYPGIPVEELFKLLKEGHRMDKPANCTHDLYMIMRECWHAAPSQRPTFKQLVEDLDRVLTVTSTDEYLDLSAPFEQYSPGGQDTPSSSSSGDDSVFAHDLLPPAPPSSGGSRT
UniProt P36888, whole entry: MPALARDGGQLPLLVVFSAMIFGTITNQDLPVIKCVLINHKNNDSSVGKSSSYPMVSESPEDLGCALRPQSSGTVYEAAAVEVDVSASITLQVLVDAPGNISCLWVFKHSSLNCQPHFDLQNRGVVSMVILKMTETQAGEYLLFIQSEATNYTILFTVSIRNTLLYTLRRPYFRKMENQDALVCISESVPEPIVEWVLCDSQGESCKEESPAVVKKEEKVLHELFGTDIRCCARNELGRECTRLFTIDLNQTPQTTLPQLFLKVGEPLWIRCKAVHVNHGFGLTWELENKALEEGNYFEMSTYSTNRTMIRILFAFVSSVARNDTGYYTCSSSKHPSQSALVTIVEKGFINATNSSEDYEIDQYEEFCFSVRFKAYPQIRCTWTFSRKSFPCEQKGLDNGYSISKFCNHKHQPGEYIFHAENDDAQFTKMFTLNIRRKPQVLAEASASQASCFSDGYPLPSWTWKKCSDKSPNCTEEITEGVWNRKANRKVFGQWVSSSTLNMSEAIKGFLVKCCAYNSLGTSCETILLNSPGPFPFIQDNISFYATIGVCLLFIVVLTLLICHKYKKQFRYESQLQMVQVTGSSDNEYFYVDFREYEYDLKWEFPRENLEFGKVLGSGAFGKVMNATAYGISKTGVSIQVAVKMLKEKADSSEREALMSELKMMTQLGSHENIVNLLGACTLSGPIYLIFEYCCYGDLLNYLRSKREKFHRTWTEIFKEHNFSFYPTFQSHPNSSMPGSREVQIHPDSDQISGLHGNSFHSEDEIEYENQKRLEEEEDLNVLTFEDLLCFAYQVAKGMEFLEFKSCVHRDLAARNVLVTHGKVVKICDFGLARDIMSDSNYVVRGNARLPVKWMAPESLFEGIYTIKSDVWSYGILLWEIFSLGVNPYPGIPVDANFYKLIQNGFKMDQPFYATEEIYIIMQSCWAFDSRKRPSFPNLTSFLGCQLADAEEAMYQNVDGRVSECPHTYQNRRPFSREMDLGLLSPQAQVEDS
UniProt P49840: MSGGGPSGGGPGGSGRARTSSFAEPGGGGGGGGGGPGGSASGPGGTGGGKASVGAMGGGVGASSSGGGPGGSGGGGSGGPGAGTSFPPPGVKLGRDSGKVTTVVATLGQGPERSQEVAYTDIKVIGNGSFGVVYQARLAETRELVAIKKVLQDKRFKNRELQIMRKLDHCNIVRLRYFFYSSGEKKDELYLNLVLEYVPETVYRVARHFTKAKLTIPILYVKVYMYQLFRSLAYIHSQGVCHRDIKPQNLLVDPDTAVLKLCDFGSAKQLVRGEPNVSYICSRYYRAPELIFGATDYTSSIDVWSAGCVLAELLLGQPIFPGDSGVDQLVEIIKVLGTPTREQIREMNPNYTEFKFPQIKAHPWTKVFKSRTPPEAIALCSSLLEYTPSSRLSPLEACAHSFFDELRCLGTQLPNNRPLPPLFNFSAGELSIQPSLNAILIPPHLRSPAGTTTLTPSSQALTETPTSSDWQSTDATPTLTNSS
UniProt P14616: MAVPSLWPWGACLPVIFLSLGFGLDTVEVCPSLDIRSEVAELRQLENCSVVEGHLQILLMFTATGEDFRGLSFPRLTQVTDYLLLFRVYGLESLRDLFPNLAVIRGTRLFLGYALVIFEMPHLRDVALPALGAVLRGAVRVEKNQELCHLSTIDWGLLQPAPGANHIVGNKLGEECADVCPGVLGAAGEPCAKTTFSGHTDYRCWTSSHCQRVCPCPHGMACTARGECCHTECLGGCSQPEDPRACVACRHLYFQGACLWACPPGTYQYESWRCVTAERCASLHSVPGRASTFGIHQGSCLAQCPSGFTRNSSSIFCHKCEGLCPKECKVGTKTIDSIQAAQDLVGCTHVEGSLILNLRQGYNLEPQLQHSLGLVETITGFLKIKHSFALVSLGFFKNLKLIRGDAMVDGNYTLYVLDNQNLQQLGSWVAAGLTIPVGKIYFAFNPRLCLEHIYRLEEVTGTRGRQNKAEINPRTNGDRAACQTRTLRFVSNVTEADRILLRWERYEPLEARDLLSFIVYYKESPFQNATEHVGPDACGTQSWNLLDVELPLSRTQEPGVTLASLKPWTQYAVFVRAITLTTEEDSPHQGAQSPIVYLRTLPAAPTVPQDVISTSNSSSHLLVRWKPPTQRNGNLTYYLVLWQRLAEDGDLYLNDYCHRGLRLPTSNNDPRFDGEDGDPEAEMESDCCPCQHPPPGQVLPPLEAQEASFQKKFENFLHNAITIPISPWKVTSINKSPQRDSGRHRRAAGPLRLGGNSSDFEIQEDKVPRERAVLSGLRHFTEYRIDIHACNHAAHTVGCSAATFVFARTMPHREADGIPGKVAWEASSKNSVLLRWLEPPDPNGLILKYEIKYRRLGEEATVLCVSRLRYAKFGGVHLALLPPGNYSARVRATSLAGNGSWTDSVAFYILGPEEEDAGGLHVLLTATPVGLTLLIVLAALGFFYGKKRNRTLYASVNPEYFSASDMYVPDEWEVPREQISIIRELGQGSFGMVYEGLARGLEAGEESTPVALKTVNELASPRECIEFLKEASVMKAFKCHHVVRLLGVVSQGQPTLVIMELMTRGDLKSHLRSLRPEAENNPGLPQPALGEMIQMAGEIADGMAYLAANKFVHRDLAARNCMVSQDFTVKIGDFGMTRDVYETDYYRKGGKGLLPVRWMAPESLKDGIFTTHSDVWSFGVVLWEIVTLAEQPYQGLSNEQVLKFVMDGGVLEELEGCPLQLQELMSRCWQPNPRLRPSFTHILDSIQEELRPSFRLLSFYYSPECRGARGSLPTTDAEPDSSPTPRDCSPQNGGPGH

Experiments:
Test in all cases: kinase-Nluc reporter destabilization hit call (1 = scored as downregulated) (binary); higher = compound decreases kinase abundance
Conditions in all cases: K562; 2-18 h
ERN1 = ERN1 (UniProt O75460)
FGFR1 = FGFR1 (UniProt P11362)
FGFR2 = FGFR2 (UniProt P21802)
FGFR3 = FGFR3 (UniProt P22607)
FGR = FGR (UniProt P09769)
FLT3 = FLT3 (UniProt P36888)
FYN = FYN (UniProt P06241)
GSK3A = GSK3A (UniProt P49840)
HER2 = HER2 (UniProt P04626)
INSRR = INSRR (UniProt P14616)

Measured: kinase-Nluc reporter destabilization hit call

COc1cc(N2CCC(N(C)C)CC2)ccc1Nc1ncc(Cl)c(Nc2ccccc2P(C)(C)=O)n1 (2.5 µM)
inactive: ERN1 = 0 | FGFR1 = 0 | FGFR2 = 0 | FGFR3 = 0 | FGR 0 | FLT3 = 0 | FYN 0 | GSK3A 0 | HER2 = 0 | INSRR 0

COc1ccccc1/C=C1\C(=O)Nc2ccccc21 (10 µM)
inactive: ERN1 = 0 | FGFR1 = 0 | FGFR2 = 0 | FGFR3 = 0 | FGR 0 | FLT3 = 0 | FYN 0 | GSK3A 0 | HER2 = 0 | INSRR 0

CC(C)c1cnn2c(NCc3ccccc3-n3cccn3)nc(OC3CCCNC3)nc12 (stereo not given) (2.5 µM)
inactive: ERN1 = 0 | FGFR1 = 0 | FGFR2 = 0 | FGFR3 = 0 | FGR 0 | FLT3 = 0 | FYN 0 | GSK3A 0 | HER2 = 0 | INSRR 0

CC(=O)Nc1nc2ccc(-c3cnc(C)c(NC(=O)OC4CCCCC4)c3)cc2s1 (10 µM)
inactive: ERN1 = 0 | FGFR1 = 0 | FGFR2 = 0 | FGFR3 = 0 | FGR 0 | FLT3 = 0 | FYN 0 | GSK3A 0 | HER2 = 0 | INSRR 0
